# The supplement of paper PMC10849652
# Protein sequences, listed by entry. Tags and fused reporters are not part of them. Lines headed by an entry give the natural chain unless they say otherwise; changes in a name come on top.
# UniProt A6NFI3: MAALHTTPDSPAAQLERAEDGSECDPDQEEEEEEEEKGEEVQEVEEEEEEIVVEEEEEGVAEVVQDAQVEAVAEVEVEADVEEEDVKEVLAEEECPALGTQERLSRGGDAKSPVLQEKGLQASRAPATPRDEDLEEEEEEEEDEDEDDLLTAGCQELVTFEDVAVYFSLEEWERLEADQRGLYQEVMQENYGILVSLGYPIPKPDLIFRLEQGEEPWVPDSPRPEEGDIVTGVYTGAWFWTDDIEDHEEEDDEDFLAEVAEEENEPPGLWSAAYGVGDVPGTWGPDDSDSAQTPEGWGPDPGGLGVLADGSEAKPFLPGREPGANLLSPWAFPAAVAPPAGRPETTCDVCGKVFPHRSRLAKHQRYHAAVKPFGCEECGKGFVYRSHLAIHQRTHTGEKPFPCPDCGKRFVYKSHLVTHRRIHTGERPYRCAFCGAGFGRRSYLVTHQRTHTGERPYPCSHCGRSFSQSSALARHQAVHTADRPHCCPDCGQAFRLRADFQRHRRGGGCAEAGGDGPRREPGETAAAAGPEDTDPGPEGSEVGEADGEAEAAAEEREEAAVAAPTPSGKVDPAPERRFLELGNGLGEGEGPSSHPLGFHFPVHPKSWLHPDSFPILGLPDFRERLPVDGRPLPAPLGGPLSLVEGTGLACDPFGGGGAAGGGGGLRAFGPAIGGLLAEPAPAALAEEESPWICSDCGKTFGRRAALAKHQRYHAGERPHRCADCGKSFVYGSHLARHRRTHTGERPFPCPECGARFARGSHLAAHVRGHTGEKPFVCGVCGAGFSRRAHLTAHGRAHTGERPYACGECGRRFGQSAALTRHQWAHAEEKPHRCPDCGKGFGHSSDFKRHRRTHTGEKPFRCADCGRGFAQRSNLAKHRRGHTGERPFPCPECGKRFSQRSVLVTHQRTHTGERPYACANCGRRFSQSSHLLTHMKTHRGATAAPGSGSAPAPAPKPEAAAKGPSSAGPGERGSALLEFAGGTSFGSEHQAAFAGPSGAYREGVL
# UniProt Q9Y3S2: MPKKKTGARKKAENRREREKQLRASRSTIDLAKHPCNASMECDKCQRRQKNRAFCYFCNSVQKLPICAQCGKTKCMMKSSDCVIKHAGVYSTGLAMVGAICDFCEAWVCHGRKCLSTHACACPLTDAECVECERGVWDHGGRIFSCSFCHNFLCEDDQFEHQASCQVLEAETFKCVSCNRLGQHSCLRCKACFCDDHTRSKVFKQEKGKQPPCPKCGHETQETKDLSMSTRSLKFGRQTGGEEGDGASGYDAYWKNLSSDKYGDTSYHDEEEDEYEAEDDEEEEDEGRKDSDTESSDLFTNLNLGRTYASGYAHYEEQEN
# UniProt O95229: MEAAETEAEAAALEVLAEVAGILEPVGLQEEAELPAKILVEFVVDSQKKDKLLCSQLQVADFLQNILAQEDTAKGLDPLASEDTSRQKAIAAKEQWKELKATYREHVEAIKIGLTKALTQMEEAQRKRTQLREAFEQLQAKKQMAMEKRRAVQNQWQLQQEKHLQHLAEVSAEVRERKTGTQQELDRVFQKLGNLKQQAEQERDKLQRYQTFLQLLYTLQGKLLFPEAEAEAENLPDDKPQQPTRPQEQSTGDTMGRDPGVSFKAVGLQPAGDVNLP
# UniProt Q9NWK9: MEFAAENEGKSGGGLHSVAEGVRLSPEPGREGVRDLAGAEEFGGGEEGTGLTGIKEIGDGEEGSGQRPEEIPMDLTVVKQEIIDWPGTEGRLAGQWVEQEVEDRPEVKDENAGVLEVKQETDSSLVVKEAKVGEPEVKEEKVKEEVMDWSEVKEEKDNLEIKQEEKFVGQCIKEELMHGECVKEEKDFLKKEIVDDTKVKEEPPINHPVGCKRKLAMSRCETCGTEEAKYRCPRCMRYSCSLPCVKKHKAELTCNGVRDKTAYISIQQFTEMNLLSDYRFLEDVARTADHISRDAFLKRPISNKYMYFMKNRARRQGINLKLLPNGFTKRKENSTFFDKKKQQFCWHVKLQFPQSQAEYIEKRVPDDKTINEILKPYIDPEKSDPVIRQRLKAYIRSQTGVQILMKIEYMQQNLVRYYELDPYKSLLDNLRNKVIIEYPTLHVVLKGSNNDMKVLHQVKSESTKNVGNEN
# UniProt Q5VZL5: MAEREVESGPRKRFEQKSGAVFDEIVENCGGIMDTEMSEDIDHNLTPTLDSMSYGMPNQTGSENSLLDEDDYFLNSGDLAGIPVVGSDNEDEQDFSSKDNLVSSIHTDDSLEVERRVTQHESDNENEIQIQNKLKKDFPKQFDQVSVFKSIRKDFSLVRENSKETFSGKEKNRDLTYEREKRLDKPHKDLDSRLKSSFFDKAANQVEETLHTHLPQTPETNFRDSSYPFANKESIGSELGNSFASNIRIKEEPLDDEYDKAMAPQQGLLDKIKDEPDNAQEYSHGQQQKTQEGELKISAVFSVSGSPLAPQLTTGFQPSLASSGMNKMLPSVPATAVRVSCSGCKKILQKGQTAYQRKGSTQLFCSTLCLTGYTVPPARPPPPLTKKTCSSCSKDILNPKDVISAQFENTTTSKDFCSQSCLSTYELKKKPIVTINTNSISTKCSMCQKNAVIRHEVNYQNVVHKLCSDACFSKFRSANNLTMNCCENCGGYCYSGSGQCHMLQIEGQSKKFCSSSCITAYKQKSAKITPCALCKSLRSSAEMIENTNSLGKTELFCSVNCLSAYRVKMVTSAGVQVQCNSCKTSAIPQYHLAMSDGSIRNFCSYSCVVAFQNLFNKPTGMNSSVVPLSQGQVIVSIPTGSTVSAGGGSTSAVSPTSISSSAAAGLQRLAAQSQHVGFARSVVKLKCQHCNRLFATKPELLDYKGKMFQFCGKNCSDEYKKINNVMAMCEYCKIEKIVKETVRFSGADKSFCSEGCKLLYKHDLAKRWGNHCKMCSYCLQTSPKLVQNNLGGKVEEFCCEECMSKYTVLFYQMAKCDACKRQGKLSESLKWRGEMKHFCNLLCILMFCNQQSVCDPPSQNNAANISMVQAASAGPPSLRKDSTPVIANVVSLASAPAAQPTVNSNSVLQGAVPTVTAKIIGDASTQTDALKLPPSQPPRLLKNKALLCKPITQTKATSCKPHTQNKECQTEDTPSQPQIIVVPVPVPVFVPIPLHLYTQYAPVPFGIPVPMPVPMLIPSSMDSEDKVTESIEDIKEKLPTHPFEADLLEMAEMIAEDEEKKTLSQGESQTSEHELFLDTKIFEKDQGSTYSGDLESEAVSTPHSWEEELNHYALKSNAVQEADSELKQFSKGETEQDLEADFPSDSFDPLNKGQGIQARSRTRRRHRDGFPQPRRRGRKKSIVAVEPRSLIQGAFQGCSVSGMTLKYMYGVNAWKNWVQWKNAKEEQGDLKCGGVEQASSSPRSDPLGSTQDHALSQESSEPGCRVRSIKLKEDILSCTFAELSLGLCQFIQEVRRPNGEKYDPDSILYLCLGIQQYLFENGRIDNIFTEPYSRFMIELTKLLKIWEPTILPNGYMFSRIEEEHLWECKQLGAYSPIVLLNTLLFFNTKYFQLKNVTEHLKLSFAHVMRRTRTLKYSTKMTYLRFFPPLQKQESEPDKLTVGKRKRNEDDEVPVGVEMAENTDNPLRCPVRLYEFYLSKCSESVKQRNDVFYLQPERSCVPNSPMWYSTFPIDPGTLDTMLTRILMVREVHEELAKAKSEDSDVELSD
# UniProt O43264: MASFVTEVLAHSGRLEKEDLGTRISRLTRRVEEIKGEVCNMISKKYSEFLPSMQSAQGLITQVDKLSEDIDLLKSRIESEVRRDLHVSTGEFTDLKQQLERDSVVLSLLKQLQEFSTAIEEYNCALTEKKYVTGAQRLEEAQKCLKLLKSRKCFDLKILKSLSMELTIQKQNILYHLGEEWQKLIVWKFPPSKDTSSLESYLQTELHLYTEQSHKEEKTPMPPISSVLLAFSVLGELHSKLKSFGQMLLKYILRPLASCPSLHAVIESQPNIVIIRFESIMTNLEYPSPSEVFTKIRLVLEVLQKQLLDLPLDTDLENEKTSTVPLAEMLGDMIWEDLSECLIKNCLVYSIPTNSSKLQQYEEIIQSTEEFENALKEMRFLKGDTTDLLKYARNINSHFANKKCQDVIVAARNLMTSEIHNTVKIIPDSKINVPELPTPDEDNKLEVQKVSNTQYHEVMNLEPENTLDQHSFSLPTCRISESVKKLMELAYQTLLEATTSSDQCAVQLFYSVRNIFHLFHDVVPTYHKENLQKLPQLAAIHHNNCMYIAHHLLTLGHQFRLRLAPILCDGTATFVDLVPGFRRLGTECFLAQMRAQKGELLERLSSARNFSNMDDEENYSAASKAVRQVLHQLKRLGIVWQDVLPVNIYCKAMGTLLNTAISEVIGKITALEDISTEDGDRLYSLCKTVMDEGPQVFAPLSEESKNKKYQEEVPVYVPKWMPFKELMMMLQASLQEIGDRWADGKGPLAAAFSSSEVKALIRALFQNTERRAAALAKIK
# UniProt Q9Y4E5: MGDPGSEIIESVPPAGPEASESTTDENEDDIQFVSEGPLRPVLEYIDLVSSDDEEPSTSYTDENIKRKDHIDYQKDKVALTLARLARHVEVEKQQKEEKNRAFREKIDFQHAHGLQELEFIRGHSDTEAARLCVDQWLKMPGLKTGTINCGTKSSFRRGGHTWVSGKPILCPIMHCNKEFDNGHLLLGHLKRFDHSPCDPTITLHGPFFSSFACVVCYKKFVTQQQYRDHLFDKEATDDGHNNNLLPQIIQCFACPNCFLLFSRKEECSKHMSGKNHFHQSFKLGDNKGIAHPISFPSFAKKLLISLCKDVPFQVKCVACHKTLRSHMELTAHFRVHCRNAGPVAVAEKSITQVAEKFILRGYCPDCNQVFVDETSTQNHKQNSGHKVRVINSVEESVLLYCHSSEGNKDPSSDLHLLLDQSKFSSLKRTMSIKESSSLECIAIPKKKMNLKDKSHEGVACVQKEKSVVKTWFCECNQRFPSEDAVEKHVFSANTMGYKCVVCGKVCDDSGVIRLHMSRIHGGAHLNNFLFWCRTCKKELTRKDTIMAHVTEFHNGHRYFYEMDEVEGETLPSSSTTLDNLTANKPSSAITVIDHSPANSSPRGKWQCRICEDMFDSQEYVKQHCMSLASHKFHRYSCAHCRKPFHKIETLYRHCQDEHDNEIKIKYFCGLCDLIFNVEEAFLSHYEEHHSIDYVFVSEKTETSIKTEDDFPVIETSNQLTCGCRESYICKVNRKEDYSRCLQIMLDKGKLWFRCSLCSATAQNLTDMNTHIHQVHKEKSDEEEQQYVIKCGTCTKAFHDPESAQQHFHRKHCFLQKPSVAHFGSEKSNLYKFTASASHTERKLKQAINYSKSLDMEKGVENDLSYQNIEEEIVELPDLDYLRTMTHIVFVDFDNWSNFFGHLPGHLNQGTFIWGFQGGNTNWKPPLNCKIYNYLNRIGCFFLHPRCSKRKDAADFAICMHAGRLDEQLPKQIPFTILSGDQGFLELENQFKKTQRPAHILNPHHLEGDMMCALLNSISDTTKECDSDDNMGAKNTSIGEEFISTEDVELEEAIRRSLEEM
# UniProt P17029: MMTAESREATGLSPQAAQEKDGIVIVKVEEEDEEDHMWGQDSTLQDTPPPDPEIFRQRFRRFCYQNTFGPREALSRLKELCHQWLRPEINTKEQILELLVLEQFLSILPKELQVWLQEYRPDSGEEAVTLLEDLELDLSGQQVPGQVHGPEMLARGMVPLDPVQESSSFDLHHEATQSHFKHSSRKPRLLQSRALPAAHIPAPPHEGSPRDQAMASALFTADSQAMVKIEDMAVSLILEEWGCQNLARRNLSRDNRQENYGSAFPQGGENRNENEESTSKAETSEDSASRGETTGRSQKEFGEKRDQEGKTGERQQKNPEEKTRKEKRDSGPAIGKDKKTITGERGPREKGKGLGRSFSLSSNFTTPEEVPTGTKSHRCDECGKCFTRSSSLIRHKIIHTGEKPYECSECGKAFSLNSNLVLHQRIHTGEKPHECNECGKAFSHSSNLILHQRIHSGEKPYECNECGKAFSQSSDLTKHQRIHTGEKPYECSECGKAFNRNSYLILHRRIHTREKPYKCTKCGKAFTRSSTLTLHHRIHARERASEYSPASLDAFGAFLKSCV
# UniProt O43670: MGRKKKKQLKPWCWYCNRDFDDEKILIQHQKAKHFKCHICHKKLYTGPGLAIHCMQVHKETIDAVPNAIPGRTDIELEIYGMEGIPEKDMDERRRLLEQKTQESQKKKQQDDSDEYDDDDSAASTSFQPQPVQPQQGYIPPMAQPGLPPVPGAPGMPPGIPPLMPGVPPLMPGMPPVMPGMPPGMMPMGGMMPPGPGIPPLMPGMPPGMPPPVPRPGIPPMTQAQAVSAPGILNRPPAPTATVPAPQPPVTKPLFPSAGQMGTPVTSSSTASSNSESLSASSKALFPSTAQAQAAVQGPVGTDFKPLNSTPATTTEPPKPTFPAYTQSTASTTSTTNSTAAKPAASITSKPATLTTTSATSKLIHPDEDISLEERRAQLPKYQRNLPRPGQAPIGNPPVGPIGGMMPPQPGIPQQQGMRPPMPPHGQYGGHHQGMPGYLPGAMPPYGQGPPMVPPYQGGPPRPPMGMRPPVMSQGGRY
# The other results are listed elsewhere or left out.
# Compound: CC1=C2C(=CC=C1)N=C(N(C2=O)C3=CC=CC=C3C)CN4C=NC5=C(N=CN=C54)N
# Test: log2 fold change, soluble protein after heating vs DMSO (PISA); higher = thermal stabilisation; K562 lysate, 10 uM; active = over 0.2 and 3.5 SD of the protein, either way, in both replicates (recomputed)
# Procedure, shortened: (§1)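 Quantification was by TMTpro 16plex LC-MS/MS with equalised channel sums, applied to the supernatant after 21,000xg for 90 min. Samples were crude K562 extract at 1 mg/mL protein in PBS pH 7.4 with 1 mM MgCl2, treated with 10 μM compound for 30 min, heated for 3 min across 48°C-58°C, pooled and brought to 0.5% NP-40 at 4°C. Values are log-two fold changes in thermal stability relative to solvent controls, from duplicates.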
row,Target,log2 fold change
1,ZNF316 (UniProt A6NFI3),inactive: -0.004
2,ZNF280B (UniProt Q86YH2),inactive: 0.145
3,ZKSCAN8 (UniProt Q15776),inactive: -0.065
4,ZMYM5 (UniProt Q9UJ78),inactive: 0.037
5,ZNF330 (UniProt Q9Y3S2),inactive: -0.057
6,ZWINT (UniProt O95229),inactive: -0.047
7,ZNHIT6 (UniProt Q9NWK9),inactive: 0.013
8,ZKSCAN4 (UniProt Q969J2),inactive: -0.091
9,ZNHIT2 (UniProt Q9UHR6),inactive: 0.108
10,ZNF239 (UniProt Q16600),inactive: -0.075
11,ZMYM4 (UniProt Q5VZL5),inactive: -0.054
12,ZW10 (UniProt O43264),inactive: 0.04
13,ZZEF1 (UniProt O43149),inactive: 0.012
14,ZNF692 isoform 5 (UniProt Q9BU19),inactive: 0.077
15,ZNF451 (UniProt Q9Y4E5),inactive: -0.014
16,ZNF76 (UniProt P36508),inactive: 0.054
17,ZNRF2 (UniProt Q8NHG8),inactive: -0.008
18,ZNF511 (UniProt Q8NB15),inactive: 0.025
19,ZKSCAN1 (UniProt P17029),inactive: -0.005
20,ZNF708 (UniProt P17019),inactive: 0.071
21,ZNF207 isoform 4 (UniProt O43670),inactive: -0.026
22,ZNF77 (UniProt Q15935),inactive: -0.178

# Compound: Cc1sc2c(c1C)C(c1ccc(Cl)cc1)=N[C@@H](CC(=O)OC(C)(C)C)c1nnc(C)n1-2
# Test: as above
# Procedure, shortened: as §1
row,Target,log2 fold change
1,ZNF74 isoform 5 (UniProt Q16587),inactive: 0.06
2,ZNF316 (UniProt A6NFI3),inactive: 0.11
3,ZKSCAN8 (UniProt Q15776),inactive: -0.026
4,ZNF444 (UniProt Q8N0Y2),inactive: -0.048
5,ZNF669 (UniProt Q96BR6),inactive: -0.116
6,ZNF330 (UniProt Q9Y3S2),inactive: 0.005
7,ZWINT (UniProt O95229),inactive: 0.025
8,ZNHIT6 (UniProt Q9NWK9),inactive: 0.089
9,ZNHIT2 (UniProt Q9UHR6),inactive: -0.024
10,ZNF592 (UniProt Q92610),inactive: 0.041
11,ZMYM4 (UniProt Q5VZL5),inactive: -0.023
12,ZW10 (UniProt O43264),inactive: -0.005
13,ZZEF1 (UniProt O43149),inactive: -0.05
14,ZNF692 isoform 5 (UniProt Q9BU19),inactive: 0.061
15,ZNF346 (UniProt Q9UL40),active: -0.205
16,ZNF451 (UniProt Q9Y4E5),inactive: 0.018
17,ZNF511 (UniProt Q8NB15),inactive: 0.073
18,ZKSCAN1 (UniProt P17029),inactive: 0.003
19,ZNF207 isoform 4 (UniProt O43670),inactive: -0.018

# Compound: c1ccc([C@@H]2C[C@H]2NC2CCNCC2)cc1
# Test: as above
# Procedure, shortened: as §1
row,Target,log2 fold change
1,ZNF74 isoform 5 (UniProt Q16587),inactive: 0.04
2,ZNF316 (UniProt A6NFI3),inactive: -0.049
3,"ZNF654, A0A1B0GWA0",inactive: -0.006
4,ZNF280B (UniProt Q86YH2),inactive: 0.059
5,ZNF444 (UniProt Q8N0Y2),inactive: -0.073
6,ZNF669 (UniProt Q96BR6),inactive: 0.061
7,ZNF330 (UniProt Q9Y3S2),inactive: -0.177
8,ZWINT (UniProt O95229),inactive: -0.027
9,ZNHIT6 (UniProt Q9NWK9),inactive: 0.008
10,ZNHIT2 (UniProt Q9UHR6),inactive: -0.291
11,ZNF592 (UniProt Q92610),inactive: -0.027
12,ZNF574 isoform 2 (UniProt Q6ZN55),inactive: 0
13,ZNF239 (UniProt Q16600),inactive: 0.116
14,ZMYM4 (UniProt Q5VZL5),inactive: 0.011
15,ZW10 (UniProt O43264),inactive: 0.019
16,ZNF627 (UniProt Q7L945),inactive: 0.06
17,ZZEF1 (UniProt O43149),inactive: -0.028
18,ZNF346 (UniProt Q9UL40),inactive: -0.086
19,ZNF451 (UniProt Q9Y4E5),inactive: 0.009
20,ZNRF2 (UniProt Q8NHG8),inactive: -0.201
21,ZYG11A (UniProt Q6WRX3),inactive: -0.012
22,ZNF511 (UniProt Q8NB15),inactive: -0.111
23,ZKSCAN1 (UniProt P17029),inactive: -0.013
24,ZNF771 (UniProt Q7L3S4),inactive: -0.032
25,ZNF207 isoform 4 (UniProt O43670),inactive: -0.064
